This assay concerns the target nucleotide-binding oligomerization domain 2 (NOD2), HA-tagged (UniProt Q9HC29). The experiment in a line: co-IP.

By UniProt entry, the sequences of proteins in these tests, tags left out.
UniProt Q9HC29: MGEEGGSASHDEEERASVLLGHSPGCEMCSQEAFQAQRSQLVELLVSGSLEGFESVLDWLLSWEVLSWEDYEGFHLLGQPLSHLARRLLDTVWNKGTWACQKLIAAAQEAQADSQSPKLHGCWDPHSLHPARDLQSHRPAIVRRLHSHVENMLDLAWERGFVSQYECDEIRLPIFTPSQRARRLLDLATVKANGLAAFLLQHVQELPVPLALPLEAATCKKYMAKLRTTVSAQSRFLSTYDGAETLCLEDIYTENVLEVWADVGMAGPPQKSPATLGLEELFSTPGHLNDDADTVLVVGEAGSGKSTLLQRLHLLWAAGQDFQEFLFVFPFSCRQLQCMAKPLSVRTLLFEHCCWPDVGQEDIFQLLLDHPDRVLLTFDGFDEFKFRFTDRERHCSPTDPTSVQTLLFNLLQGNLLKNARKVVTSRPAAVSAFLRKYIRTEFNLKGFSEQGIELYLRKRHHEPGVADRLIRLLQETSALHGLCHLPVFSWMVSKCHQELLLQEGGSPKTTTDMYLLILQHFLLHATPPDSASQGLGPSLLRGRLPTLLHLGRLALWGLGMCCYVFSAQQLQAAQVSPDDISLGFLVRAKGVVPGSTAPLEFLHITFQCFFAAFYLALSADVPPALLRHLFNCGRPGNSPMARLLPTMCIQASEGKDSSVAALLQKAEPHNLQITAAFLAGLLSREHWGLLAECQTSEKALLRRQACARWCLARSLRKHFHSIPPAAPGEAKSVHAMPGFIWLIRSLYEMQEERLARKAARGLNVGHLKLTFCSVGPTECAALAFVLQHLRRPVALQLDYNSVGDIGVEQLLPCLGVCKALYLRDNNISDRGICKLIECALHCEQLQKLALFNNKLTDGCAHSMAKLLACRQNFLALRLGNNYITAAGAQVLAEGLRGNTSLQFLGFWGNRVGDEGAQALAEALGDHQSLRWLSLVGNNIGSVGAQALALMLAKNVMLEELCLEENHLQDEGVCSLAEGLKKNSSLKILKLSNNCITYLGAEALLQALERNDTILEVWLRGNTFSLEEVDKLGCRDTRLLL
UniProt P27708: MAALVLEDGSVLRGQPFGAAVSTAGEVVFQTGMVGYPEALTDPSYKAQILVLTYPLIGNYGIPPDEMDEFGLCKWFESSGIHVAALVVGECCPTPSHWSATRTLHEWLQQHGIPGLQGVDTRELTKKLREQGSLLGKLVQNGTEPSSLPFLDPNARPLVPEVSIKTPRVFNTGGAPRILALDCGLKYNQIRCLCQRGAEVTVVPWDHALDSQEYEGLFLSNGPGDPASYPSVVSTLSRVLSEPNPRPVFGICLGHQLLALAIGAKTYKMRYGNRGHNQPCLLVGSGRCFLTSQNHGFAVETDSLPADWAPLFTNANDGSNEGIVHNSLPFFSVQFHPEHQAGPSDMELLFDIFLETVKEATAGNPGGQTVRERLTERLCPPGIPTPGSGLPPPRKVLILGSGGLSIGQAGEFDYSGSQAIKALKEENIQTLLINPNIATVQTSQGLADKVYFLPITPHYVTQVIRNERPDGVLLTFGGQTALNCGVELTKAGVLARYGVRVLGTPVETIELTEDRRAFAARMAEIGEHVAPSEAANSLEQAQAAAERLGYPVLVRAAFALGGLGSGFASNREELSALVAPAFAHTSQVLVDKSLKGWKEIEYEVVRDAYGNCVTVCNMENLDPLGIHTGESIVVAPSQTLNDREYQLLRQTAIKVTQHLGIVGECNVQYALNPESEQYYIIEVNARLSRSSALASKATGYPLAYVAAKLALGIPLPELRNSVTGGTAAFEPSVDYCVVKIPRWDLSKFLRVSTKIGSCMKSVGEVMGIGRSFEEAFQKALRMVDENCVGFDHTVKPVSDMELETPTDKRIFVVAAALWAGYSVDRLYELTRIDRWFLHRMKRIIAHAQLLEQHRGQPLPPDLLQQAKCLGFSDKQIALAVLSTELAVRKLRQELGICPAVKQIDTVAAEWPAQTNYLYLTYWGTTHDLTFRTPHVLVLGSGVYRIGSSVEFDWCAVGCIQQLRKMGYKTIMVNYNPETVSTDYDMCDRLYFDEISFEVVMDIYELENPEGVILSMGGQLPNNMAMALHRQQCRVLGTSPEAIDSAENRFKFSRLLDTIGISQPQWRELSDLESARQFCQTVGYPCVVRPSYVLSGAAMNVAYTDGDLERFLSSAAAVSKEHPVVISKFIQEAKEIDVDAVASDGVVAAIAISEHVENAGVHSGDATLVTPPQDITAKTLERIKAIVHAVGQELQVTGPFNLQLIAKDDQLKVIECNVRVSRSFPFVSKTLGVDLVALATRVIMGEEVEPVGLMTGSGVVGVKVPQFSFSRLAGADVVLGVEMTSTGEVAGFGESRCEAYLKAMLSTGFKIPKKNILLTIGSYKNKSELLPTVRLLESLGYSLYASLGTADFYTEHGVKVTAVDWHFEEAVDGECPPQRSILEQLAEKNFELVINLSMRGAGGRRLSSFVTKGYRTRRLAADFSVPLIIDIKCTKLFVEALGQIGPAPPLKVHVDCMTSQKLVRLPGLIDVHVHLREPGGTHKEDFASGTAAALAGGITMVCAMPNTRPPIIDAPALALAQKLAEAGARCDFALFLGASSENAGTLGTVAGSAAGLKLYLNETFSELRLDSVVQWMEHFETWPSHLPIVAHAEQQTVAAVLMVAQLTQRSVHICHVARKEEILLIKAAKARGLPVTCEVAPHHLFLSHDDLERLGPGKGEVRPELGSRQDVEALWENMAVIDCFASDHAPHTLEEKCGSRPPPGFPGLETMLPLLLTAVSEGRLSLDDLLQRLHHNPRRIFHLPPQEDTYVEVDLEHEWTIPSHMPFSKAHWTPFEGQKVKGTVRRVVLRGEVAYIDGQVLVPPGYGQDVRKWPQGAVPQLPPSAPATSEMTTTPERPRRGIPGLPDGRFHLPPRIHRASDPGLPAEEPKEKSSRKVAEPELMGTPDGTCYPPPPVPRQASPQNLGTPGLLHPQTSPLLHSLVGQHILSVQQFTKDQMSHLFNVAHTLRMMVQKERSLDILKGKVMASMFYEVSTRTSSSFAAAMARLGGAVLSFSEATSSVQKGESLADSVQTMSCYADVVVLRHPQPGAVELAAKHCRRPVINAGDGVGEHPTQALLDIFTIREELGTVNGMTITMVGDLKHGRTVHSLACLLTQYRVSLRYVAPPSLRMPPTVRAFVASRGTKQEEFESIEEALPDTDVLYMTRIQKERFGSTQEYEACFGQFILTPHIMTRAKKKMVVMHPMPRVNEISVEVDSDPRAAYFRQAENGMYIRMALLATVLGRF

No constants are given. Whether binding was seen depends on the method and setting. In cells and extracts the contact can be indirect. Some results given as binding are weak or reduced against the parent protein; the word gives no strength.

“carbamoyl-phosphate synthetase 2/ aspartate transcarbamylase/ dihydroorotase (CAD), His-FLAG-tagged (from UniProt P27708 1-2225) (enzyme)”: the binding entry was “binds”.

Values taken from publication doi:10.1101/2022.02.08.479597.
